Assay results as given in article PMC5874046.

Chains of the proteins cited; added tags and fusions are not shown. Lines headed by an entry give the natural chain unless they say otherwise; changes in a name come on top.
UniProt P29341, whole entry: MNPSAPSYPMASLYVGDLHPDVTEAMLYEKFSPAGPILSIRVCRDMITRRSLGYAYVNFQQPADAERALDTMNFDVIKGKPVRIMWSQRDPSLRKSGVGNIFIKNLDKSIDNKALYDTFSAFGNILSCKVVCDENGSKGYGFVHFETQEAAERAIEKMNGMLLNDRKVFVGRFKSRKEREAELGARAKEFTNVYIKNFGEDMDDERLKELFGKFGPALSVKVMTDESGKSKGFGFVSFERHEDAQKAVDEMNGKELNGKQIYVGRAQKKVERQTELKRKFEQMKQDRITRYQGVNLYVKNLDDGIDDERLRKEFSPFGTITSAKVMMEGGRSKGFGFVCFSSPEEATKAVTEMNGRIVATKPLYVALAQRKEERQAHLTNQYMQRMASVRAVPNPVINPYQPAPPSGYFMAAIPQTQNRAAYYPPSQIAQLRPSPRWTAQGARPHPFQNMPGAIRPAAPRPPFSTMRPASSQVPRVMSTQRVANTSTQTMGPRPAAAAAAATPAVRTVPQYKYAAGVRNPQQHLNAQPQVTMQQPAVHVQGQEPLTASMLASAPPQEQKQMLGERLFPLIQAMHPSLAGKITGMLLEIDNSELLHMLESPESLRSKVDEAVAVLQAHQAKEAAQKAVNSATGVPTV
UniProt Q61701: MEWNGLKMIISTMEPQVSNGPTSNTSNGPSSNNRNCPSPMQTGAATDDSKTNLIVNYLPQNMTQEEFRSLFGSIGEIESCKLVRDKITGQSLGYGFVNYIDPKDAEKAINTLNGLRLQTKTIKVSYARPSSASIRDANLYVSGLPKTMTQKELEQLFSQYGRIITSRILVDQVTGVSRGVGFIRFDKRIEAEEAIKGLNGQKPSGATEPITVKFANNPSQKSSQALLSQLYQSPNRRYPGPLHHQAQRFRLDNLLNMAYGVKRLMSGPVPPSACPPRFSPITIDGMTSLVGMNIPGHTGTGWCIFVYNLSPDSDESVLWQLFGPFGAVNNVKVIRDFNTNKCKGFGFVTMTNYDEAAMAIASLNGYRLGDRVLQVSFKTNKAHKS

Key:
[1] = test system: His-PABP; experiment: competition with a labelled probe; conditions: competitor against labeled Ins2L, EMSA: 6% native PAGE, 0.5x TBE, 4°C (binding buffer as in cited work), recombinant protein, protein details: His, letters put together from the description
[2] = test system: His-PABP; experiment: EMSA; conditions: EMSA: 6% native PAGE, 0.5x TBE, 4°C (binding buffer as in cited work); recombinant protein; protein details: His; label: radiolabel (probe), unlabeled competitor; letters put together from the description
[3] = molecular target: endogenous PABP (mouse (βTC6 or MIN6 extract)) (UniProt P29341); experiment: competition with a labelled probe; conditions: 10-fold excess competitor in biotin-L pull-down, EMSA: 6% native PAGE, 0.5x TBE, 4°C (binding buffer as in cited work), protein in an extract, letters put together from the description
[4] = molecular target: endogenous PABP (mouse (βTC6 or MIN6 extract)) (UniProt P29341); experiment: pull-down; conditions: biotin pull-down: 5 mM Tris pH 7.5, 15 mM KCl, 5 mM MgCl2, 0.25 mM DTT, 10% glycerol, 20 U RNasin, 4°C 2 h; protein in an extract; letters put together from the description
[5] = molecular target: endogenous HuD (mouse (βTC6 or MIN6 extract)) (UniProt Q61701); experiment: pull-down; conditions: not significantly affected by L or S competitor; biotin pull-down: 5 mM Tris pH 7.5, 15 mM KCl, 5 mM MgCl2, 0.25 mM DTT, 10% glycerol, 20 U RNasin, 4°C 2 h; protein in an extract; letters put together from the description
[6] = label: radiolabel (probe), unlabeled competitor

GGGAGCAAGCAGGAAGCCUAUCUUC [L3]
binding result ([1]; label: unlabeled competitor): no binding

GGGAGCCCUAAGUGAUCCGCUACAA [L1]
binding result ([1]; label: unlabeled competitor): no binding

GGGAGCCCUAAGUGAUCCGCUACAAUCAAAAACCAUCAGCAAGCAGGAAGCCUAUCUUCCAGGUUAUUGUUUCAAC [Ins2L 5'UTR (L)]
binding result [2]: binds | binding result [3, 6]: binds

GGGAGCCCUAAGUGAUCCGCUACAAUCAAAAACCAUCAGCAAGCAGGAAGCCUAUCUUCCAGGUUAUUGUUUCAAC [biotin-Ins2L 5'UTR]
binding result [4]: binds | binding result [5]: binds

GGGAGCCCUAAGUGAUCCGCUACAAUCAAAAACCAUCAGCAAGCAGGAAGGUUAUUGUUUCAAC [Ins2S 5'UTR (S)]
binding result ([1]; label: unlabeled competitor): binds more weakly | binding result ([3]; label: unlabeled competitor): binds more weakly

GGGAGCCCUAAGUGAUCCGCUACAAUCAAAAACCAUCAGCAAGCAGGAAGGUUAUUGUUUCAAC [biotin-Ins2S 5'UTR]
binding result [4]: binds more weakly

GGGUACAAUCAAAAACCAUCAGCAA [L2]
binding result [2]: binds | binding result [1, 6]: binds

GGGUCUUCCAGGUUAUUGUUUCAAC [L4]
binding result ([1]; label: unlabeled competitor): no binding

For at least one entry, the source does not settle the construct or the ends of the probe. For part of these data: A negative result means that nothing was seen under these conditions. For part of these data: The comparison behind a weaker result is the experiment's own reference, which may not be listed here. For part of these data: Where cells or extracts were used, other partners may take part.
